# PubChem BioAssay AID2417 (National Center for Advancing Translational Sciences (NCATS), 2010)
# Among all 140,000 compounds or so, about 4,300 (3.1%) were called active. Inconclusive means that the source gave no clear call. Such entries were picked first, then a sample of the others.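 Rule for the calls: active = readout at or below -70, meaning at least 70% loss of cells showing the perinucleolar compartment, a nuclear body marking cancer cells; inconclusive = readout between -30 and a set limit; inactive = the rest.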
# Assay: High Content Assay for Compounds that inhibit the Assembly of the Perinucleolar Compartment;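 note: plate controls were DMSO wells for no effect and camptothecin positive control wells for full effect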
# Conditions: PC3M PTB-GFP, PNC prevalence imaging, 16 h; at 10 µM; hits give low values
# How it was run: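 Compounds are pinned in duplicate onto adhered PC3M cells stably expressing GFP-tagged PTB and incubated 16 h at 37 C. Cells are then fixed, nuclei stained with Hoechst, and PNC-positive cells counted.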
row,Compound,"activity change (PNC), negative = inhibition"
1,O=C(Cc1ccc(-n2c(=S)[nH]c3ccccc3c2=O)cc1)N1CCN(c2ccccc2)CC1,inactive: -0.833%
2,COc1ccc(N2CCN(C(=O)Cn3nnc(-c4cccs4)n3)CC2)cc1,inconclusive: -50.6%
3,CC[n+]1c(C)sc2c(C)cc(C)cc21,active: -99.2%
4,Cc1ccc(C)c(N(C(=O)Cc2cccs2)C(C(=O)NC2CCCC2)c2ccc(C)o2)c1 (configuration not stated),inactive: -10.5%
5,CC(C)(C)NC(=O)c1ccc2c(c1)N(CC(=O)N1CCN(c3ccccc3F)CC1)C(=O)C(C)(C)O2,inactive: 24%
6,CC1Oc2ccccc2N(CC(=O)N(Cc2ccccc2)Cc2ccccn2)C1=O (configuration not stated),inconclusive: -31.4%
7,CCOc1cccc(C(=O)Nc2nccs2)c1,inconclusive: -78%
8,COc1ccc(CCn2nnc(-c3ccc(NC(C)=O)c(Cl)c3)n2)cc1,inconclusive: -39.3%
9,CC(=O)N(c1ccccc1C)C1CCCC1,inactive: 25.3%
10,O=C1CCC(=O)N1CCc1c[nH]c2ccccc12,inconclusive: -37%
11,COc1ccc2oc(=O)c(C(=O)Oc3ccc(NC(C)=O)cc3)cc2c1,inconclusive: -43.9%
12,C=C(C)Cn1c(SCC(=O)N/N=C/c2c(O)ccc3ccccc23)nc2ccccc2c1=O,active: -121%
13,COc1cc2c(cc1OC)C(c1ccc(-c3ccc(Cl)cc3Cl)o1)=NCC2,inconclusive: -47.9%
14,O=S(=O)(c1cccc2cccnc12)N1CCN(Cc2ccc3c(c2)OCO3)CC1,inconclusive: -35.9%
15,Cc1ccc(C)c(NC(=O)CSc2nc3c(oc4ccccc43)c(=O)n2-c2ccccc2)c1,inactive: -5.79%
16,Cc1ccc(NC(=O)N2CCC(C(=O)NCC(C)C)CC2)cc1,inconclusive: -32.3%
17,CC(=O)N1CCC(=O)N(C(C)C)c2ccccc21,inactive: 99.8%
18,COc1ccc(C(=O)NCCSCc2ccccc2C)cc1,inactive: 23.4%
19,Cc1ccc(N/C=C/C(=O)C(C)(C)C)c(O)c1,inactive: -7.79%

row,Compound,"activity change (PNC), negative = inhibition"
1,CC(C)Cn1c(N)c(C(=O)CSc2cc(Cl)ccc2Cl)c(=O)n(C)c1=O,inactive: -10.4%
2,CCCCCc1nc2sc3c(c2c(=O)n1NC(=O)c1ccc([N+](=O)[O-])cc1)CC(C)(C)OC3,inconclusive: -50.7%
3,COc1cc(/C=N/NC(=O)c2cc(-c3ccccc3OC(C)C)nc3ccccc23)ccc1O,inactive: -27.8%
4,Cc1ccc(/C=C/C(=O)Nc2cc(S(=O)(=O)N3CCCCCC3)ccc2OCC(F)(F)F)o1,inconclusive: -49.2%
5,CC1(C)CC(=O)C(C(C#Cc2ccccc2)C2=C(O)CC(C)(C)CC2=O)=C(O)C1,inactive: 10.9%
6,CCOC(=O)CSc1nc2c(c(-c3ccc(C)o3)c1C#N)CCCC2,inactive: 2.95%
7,C/C(=N\OC(=O)c1cccc(Cl)c1)c1sc(C)nc1C,inconclusive: -75.7%
8,COc1ccccc1C/C(N)=N/OC(=O)COc1cccc(C)c1,inconclusive: -41.6%
9,CC(C)c1cc(C(=O)Nc2sc3c(c2C#N)CCC3)no1,inactive: 7.28%
10,CC1CCN(c2ccc(N3C(=O)C4CCCCC4C3=O)cc2[N+](=O)[O-])CC1 (configuration not stated),inactive: 64.4%
11,Cc1cc(C)n(-c2cc(N3CCN(S(=O)(=O)c4ccc(Br)cc4)CC3)ccc2[N+](=O)[O-])n1,inconclusive: -70.3%
12,C=CCNC(=O)C1CCN(S(=O)(=O)c2ccccc2)CC1,inconclusive: -40.4%
13,COc1ccc(-c2cc(-c3nnc(-c4ccncc4)o3)c3ccccc3n2)cc1,inconclusive: -33.3%
14,COc1cc(NS(=O)(=O)N2CCCC2)cc(OC)c1OC,inconclusive: -72.3%
15,N#CCSc1nnc(-c2ccccc2O)n1Cc1ccccc1,inconclusive: -39.2%
16,N#CCCN(C(=O)Nc1ccc(Cl)cc1)c1ccccc1,inconclusive: -61.5%
17,CCOC(=O)C1(CC/C(C)=N\NC(N)=O)CC(C)OC1=O (configuration not stated),inconclusive: -52%
18,Cc1ccc(/C=N/NC(=O)CSc2nnc(-c3ccc(Cl)cc3)n2-c2ccccc2)o1,inconclusive: -33.4%
19,Cc1ccc(C)c2[nH]c(=O)c(CCNC(=O)c3cc4ccccc4o3)cc12,inconclusive: -74.8%

# 13 entries from above in another layout:
row	Compound	activity change (PNC), negative = inhibition
7	C/C(=N\OC(=O)c1cccc(Cl)c1)c1sc(C)nc1C	inconclusive: -75.7%
8	COc1ccccc1C/C(N)=N/OC(=O)COc1cccc(C)c1	inconclusive: -41.6%
9	CC(C)c1cc(C(=O)Nc2sc3c(c2C#N)CCC3)no1	inactive: 7.28%
10	CC1CCN(c2ccc(N3C(=O)C4CCCCC4C3=O)cc2[N+](=O)[O-])CC1 (configuration not stated)	inactive: 64.4%
11	Cc1cc(C)n(-c2cc(N3CCN(S(=O)(=O)c4ccc(Br)cc4)CC3)ccc2[N+](=O)[O-])n1	inconclusive: -70.3%
12	C=CCNC(=O)C1CCN(S(=O)(=O)c2ccccc2)CC1	inconclusive: -40.4%
13	COc1ccc(-c2cc(-c3nnc(-c4ccncc4)o3)c3ccccc3n2)cc1	inconclusive: -33.3%
14	COc1cc(NS(=O)(=O)N2CCCC2)cc(OC)c1OC	inconclusive: -72.3%
15	N#CCSc1nnc(-c2ccccc2O)n1Cc1ccccc1	inconclusive: -39.2%
16	N#CCCN(C(=O)Nc1ccc(Cl)cc1)c1ccccc1	inconclusive: -61.5%
17	CCOC(=O)C1(CC/C(C)=N\NC(N)=O)CC(C)OC1=O (configuration not stated)	inconclusive: -52%
18	Cc1ccc(/C=N/NC(=O)CSc2nnc(-c3ccc(Cl)cc3)n2-c2ccccc2)o1	inconclusive: -33.4%
19	Cc1ccc(C)c2[nH]c(=O)c(CCNC(=O)c3cc4ccccc4o3)cc12	inconclusive: -74.8%

# Remaining list, next part.

row,Compound,"activity change (PNC), negative = inhibition"
1,COc1ccc(NC(=O)c2cc3c(s2)CCC(C)C3)cc1S(=O)(=O)N1CCOCC1 (configuration not stated),inconclusive: -47.8%
2,O=C(CCC1COc2ccccc2O1)Nc1ncccc1O (configuration not stated),inconclusive: -32.5%
3,CCNC(=S)N/N=C(\C)c1cc2ccccc2o1,inactive: 60.7%
4,Nc1nnnn1/N=C/c1cccc(OCc2ccccc2Cl)c1,inactive: -23.6%
5,COC(=O)CSC1=NS(=O)(=O)c2ccccc21,inconclusive: -48.2%
6,CCOc1c2ccc(C(=O)NCCc3ccc(C)cc3)cc2nn1CC,active: -113%
7,N=c1oc2ccccc2cc1-c1nc2ccccc2c(=O)[nH]1,inactive: -24.8%
8,COc1cccc(CN2CCN(c3cccc(C(F)(F)F)c3)CC2)c1OC,inconclusive: -37.9%
9,O=C(O)C1CCN(S(=O)(=O)c2ccc(Oc3ccccc3)cc2)CC1,active: -82.6%
10,CC1CC(C)CN(CCCNC(=O)Cc2c(C(=O)O)[nH]c3ccccc23)C1 (configuration not stated),inactive: 54%
11,CCCCCC(=O)N(CN1C(=O)CCC1=O)c1ccccc1,inactive: 38.3%
12,C=CCn1c(SCc2ccc(C(=O)OC)cc2)nnc1-c1sc(N)nc1C,inconclusive: -32.5%
13,CCOc1cc(/C=N/NC(=O)C(=O)NC)cc(Br)c1O,inactive: 8.47%
14,COc1ccc(NC(=O)CSc2c(C)nn(-c3nnc(C)c(=O)[nH]3)c2C)cc1,inconclusive: -63.5%
15,CCN(CC)CCNC(=O)Cn1cnc2sc(C)c(S(=O)(=O)N3CCOCC3)c2c1=O,active: -100%
16,O=C1C2C3C=CC(C3)C2C(=O)N1c1cccc(N2C(=O)C3C4C=CC(C4)C3C2=O)n1 (configuration not stated),active: -98.8%
17,CCn1cc(C(=O)NC(C)C2CC3CCC2C3)cn1 (configuration not stated),inactive: -27.2%
18,C=CCNC(=S)Nc1sc2c(c1C(=O)OCC)CC(C)(CC)OC2 (configuration not stated),active: -100%
19,O=C(NC(C(=O)N/N=C/c1c2ccccc2cc2ccccc12)c1n[nH]c(=O)c2ccccc12)c1ccccc1 (configuration not stated),inconclusive: -32.5%
